From paper PMC7188950
These are yes or no findings as the source states them, for the method shown. Binding seen in cells or lysates may run through a third protein.

Biological target: Signal transducer and activator of transcription 3 (mouse (endogenous in crude mitochondria)), P42227
Experiment: co-IP; crude mitochondria solubilized with 2% digitonin (detergent:protein = 4:1), diluted five times with MRB; Protein A/G beads coated with STAT3, NDUFA13 or GFP antibody; overnight at 4°C; four washes with MRB; Western blot
Details: remark: other sources report otherwise

B1: NADH:ubiquinone oxidoreductase subunit A13, Q9ERS2 1-144 (protein)
chain: MAASKVKQDMPPPGGYGPIDYKRNLPRRGLSGYSMFAVGIGALIFGYWRMMRWNQERRRLLIEDLEARIALMPLFQAEKDRRTLQILRENLEEEAIIMKDVPNWKVGESVFHTTRWVPPLIGEMYGLRTKEEMSNANFGFTWYT
binding: no binding
